Six substances from paper PMC12824264 can be followed below.

The chains behind the UniProt entries cited, without tags or fusion partners. Residues count along the entry.
UniProt P37023, residues 22-503: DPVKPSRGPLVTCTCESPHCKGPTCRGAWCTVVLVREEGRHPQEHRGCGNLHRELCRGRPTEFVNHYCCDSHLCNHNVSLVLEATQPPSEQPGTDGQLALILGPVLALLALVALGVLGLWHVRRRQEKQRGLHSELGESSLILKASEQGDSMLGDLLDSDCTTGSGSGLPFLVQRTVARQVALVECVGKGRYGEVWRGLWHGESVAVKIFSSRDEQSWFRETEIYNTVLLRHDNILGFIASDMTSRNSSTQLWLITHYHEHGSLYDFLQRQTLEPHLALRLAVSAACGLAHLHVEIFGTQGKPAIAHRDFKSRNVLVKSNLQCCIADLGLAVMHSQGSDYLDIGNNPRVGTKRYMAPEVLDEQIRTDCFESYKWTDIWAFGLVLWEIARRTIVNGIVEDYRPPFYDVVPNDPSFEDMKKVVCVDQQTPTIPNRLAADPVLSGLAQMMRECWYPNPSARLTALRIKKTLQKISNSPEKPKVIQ
UniProt Q15797: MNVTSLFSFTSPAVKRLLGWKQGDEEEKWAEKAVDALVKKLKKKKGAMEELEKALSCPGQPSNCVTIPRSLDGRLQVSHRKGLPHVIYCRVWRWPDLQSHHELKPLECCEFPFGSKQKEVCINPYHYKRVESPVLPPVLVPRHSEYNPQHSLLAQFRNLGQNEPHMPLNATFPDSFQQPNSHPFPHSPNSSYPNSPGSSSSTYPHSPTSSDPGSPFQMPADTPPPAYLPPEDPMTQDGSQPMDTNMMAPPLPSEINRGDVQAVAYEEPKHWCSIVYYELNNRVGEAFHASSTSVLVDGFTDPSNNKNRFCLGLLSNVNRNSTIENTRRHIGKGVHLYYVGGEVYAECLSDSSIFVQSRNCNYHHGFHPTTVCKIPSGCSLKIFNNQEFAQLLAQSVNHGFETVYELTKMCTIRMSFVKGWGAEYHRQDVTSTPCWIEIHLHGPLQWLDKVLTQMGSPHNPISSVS
UniProt P37173, residues 23-567: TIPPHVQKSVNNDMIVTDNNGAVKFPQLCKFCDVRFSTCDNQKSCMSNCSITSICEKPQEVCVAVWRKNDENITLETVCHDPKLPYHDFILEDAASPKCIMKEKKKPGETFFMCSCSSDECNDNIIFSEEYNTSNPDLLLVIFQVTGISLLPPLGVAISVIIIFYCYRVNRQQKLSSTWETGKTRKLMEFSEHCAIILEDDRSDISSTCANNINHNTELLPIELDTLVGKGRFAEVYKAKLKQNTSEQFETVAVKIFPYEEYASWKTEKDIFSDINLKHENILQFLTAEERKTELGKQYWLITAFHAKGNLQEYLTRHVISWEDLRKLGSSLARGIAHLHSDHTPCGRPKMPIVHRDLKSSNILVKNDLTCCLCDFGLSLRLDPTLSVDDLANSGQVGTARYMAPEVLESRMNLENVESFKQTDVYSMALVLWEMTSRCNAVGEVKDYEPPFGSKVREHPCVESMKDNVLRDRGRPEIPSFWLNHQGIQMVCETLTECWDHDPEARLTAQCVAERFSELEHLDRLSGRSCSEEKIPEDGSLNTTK
UniProt Q99717: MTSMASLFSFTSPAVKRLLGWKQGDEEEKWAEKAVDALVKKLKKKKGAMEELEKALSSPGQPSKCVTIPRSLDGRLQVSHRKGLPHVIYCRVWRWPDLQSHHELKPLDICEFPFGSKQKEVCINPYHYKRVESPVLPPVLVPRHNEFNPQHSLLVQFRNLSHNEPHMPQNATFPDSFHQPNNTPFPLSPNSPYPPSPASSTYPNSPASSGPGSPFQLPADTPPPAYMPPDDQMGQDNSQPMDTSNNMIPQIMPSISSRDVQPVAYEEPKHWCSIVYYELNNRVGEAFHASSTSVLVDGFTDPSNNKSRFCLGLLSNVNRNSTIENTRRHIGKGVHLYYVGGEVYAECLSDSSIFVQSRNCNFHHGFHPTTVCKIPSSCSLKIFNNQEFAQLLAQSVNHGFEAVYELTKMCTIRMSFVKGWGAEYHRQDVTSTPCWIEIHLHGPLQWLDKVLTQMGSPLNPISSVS
UniProt Q15796: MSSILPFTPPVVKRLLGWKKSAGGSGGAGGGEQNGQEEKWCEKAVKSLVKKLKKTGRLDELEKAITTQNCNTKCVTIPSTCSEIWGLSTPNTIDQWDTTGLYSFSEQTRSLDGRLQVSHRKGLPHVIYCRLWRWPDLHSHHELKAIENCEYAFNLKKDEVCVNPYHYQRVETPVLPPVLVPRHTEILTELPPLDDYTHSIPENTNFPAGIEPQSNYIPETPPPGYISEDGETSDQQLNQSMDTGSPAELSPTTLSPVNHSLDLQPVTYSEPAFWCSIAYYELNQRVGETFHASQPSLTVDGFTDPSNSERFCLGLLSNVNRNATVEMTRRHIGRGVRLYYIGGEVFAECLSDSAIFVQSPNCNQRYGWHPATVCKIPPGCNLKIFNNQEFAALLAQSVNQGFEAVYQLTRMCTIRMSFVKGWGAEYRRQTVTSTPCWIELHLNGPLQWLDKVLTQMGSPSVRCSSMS
UniProt P19474: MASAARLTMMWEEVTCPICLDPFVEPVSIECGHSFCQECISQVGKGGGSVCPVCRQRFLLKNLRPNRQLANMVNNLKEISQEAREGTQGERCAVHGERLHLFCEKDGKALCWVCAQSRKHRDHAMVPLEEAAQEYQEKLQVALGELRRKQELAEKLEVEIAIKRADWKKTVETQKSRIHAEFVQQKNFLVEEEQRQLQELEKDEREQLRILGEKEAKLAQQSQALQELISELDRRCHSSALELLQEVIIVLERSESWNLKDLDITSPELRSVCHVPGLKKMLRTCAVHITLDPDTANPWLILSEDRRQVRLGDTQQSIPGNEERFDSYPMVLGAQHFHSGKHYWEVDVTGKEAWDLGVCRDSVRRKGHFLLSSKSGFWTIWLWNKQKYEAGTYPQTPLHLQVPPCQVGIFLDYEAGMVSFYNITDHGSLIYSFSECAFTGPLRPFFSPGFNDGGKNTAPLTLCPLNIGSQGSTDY

No constants are given. Whether binding was seen depends on the method and setting. In cells and extracts the contact can be indirect. These calls come from enrichment with a bait or labelling near it, and not all partners need be listed. For some of these results: A no says only that the protein was not detected with the bait.

One assay addresses T1, endogenous endoglin (ENG) (human (endogenous in HAOECs, HUVECs, HPAECs)) (UniProt P17813).
T1 sequence: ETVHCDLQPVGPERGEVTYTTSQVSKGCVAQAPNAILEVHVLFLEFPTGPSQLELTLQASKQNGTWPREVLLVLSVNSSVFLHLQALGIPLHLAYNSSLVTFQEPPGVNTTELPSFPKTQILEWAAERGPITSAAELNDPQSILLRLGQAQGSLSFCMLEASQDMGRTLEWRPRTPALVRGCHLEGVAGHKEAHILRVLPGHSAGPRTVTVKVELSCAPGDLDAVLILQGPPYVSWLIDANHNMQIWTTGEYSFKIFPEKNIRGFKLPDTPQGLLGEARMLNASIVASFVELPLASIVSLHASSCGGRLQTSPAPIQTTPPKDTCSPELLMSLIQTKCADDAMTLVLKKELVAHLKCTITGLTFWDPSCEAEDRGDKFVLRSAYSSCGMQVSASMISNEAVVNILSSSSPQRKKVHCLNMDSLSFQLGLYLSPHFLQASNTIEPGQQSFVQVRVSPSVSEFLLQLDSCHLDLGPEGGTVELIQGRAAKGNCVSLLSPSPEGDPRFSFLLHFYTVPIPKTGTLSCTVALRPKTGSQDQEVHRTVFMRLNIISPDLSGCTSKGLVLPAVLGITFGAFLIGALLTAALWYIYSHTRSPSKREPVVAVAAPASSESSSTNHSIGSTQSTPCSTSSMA
Nature of the assay: condition: only cells in 10% FBS or treated with pro:BMP9 (Smad1/5 phosphorylation activated); affinity purification with mass spectrometry; as a12, only the cells in 10% FBS or in 0.1% FBS treated with pro:BMP9 (Smad1/5 phosphorylation active).
Regarding “endogenous ALK1 (from UniProt P37023 22-503) (receptor)”, the binding result is “no binding”.

The target of the next assay is T1, endogenous endoglin (ENG) (human (endogenous in HAOECs, HUVECs, HPAECs)). Nature of the assay: affinity purification with mass spectrometry; TRC105 (anti-ENG) NHS affinity column against a BSA-NHS control column; lysates (1% Triton-X100/PBS, 2 mM EDTA) of HAOECs, HUVECs and HPAECs kept in 0.1% FBS, 10% FBS, or 0.1% FBS with 0.25 ng/ml pro:BMP9 for 40 min; elution with 0.15 M glycine pH 2.5; LC-MS/MS.
Consider SMAD1 (from UniProt Q15797 1-465), for which the binding entry was “binds”.

As to “endogenous TGF-beta type II receptor (TGFBRII) (from UniProt P37173 23-567)”, the binding result is given as “binds”.

Regarding SMAD5 (from UniProt Q99717 1-465), the binding entry was “binds”. With “endogenous ALK1 (from UniProt P37023 22-503) (receptor)”, the binding result is listed as “binds”. Still for that read-out and setting: the entry for SMAD2 (from UniProt Q15796 1-467) is “binds”; for TRIM21 (from UniProt P19474 1-475) it is “binds”.
